Test results: US9889092B2, “Low density lipoprotein nanocarriers for targeted delivery of omega-3 polyunsaturated fatty acids to cancer” (The Board of Regents of the University of Texas System, priority 2013, dated 2018)
At least one compound was matched to its structure with a doubt left. Some results were stated once for a whole list of compounds, not compound by compound.

Assay: Oxidative stability of LDL nanoparticles (peroxide value, HPLC DHA content)
Type: physicochemical
Text: FIGS. 4A-D. Oxidative stability: (FIG. 4A) HPLC determination of DHA content in LDL nanoparticles and DHA in heptane; (**) p<0.01 DHA in heptane versus LDL-DHA, after 14 days; (***) p<0.001, DHA in heptane versus LDL-DHA, after 21 and 28 days. (FIG. 4B) Peroxide indices of LDL, DHA in heptane, and LDL-DHA nanoparticles. Samples from FIG. 4A and FIG. 4B were stored at ambient conditions and were subjected to HPLC or peroxide analysis at baseline, 7, 14, 21, and 28 days; (**) p<0.01, DHA in heptane versus LDL-DHA after 14 days; (***) p<0.001, LDL or DHA in heptane versus LDL-DHA after 21 and 28 days; (****) p<0.0001, LDL versus LDL-DHA, after 28 days. (FIG. 4C) Peroxide indices of LDL, DHA in heptane, and LDL-DHA nanoparticles over a 4 day period (baseline, 1 day and 4 days) at 40° C.; (*) p<0.1, DHA in heptane versus LDL-DHA, after 24 h; (**) p<0.01, LDL and DHA in heptane versus LDL-DHA, after 96 h. (FIG. 4D) Peroxide indices of LDL, DHA in heptane, and LDL-DHA nanoparticles at baseline and after a 5 hour incubation at 55° C.; (***) p<0.001, LDL or DHA in heptane versus LDL-DHA, after oxidation at 55° C. DHA content is expressed as a percentage of baseline control. The peroxide index is expressed as mEq of peroxide/Kg of lipid.
Oxidative stability of LDL nanoparticles. The oxidative stabilities of native LDL and LDL nanoparticles were investigated at different storage conditions: (i) room temperature for 1 month; (ii) 40° C. for four days; and (iii) 55° C. for 5 hrs. All samples (50 μl) were vortexed thoroughly in a mixture of 700 μl CHCl3:MeOH (2:1 v/v) and 250 μl of Milli-Q water. […] Absorbance of red color formed from the presence of ferric ion was measured at 500 nm using UV-visible spectrophotometer (UV 1800, Shimadzu, USA) and the concentration was determined using a calibration curve of ferric chloride (FeCl3). […] The peroxide value was calculated using the following formula: PV=[Fe3+]/(55.84×g of lipids×2) where 55.84 is the molecular weight of iron. Results were expressed as mEq peroxide/kg lipid.

## CC/C=C\C/C=C\C/C=C\C/C=C\C/C=C\C/C=C\CCC(=O)O [DHA in heptane, docosahexaenoic acid]
Ambient room temperature and air for one month
  increase in peroxide index: 12 mEq/kg lipid
Four weeks / one month at room temperature and air
  loss of DHA content: 43%
Under air at 40° C. for four days
  peroxide index: > 13.0 mEq/kg lipid
